Data as given in PubChem BioAssay AID1259254 (NCATS, 2017).
This is one part, drawn at random, of about 59,000 reagents tested. Of all reagents, about 1,550 (2.6%) were called active. 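G2 share is only a proxy for re-replication; each gene was hit by three separate siRNAs, and active genes were retested.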 Reagents against one gene are numbered here. Further read-outs or replicates are left out here. Reagent sequences are not shown. Not stated in the record: the amount of reagent.

Assay: 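Genome-wide screen for genes that prevent DNA re-replication in cancer cells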 (primary screen)
Cell system: human HCT116 colorectal cancer cells
Reagents: single siRNA against human genes
Duration: 3 days
Detection: 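Nuclei stained with Hoechst and imaged; cell-cycle phase assigned by DNA content; G2 share scaled per plate, non-targeting siRNA 0%, GMNN siRNA 100%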
Reading the numbers: G2 robust z-score: higher = more G2 cells, more excess DNA replication
Rule for the call: 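An siRNA counts as active if its G2 robust z-score lies at least 5 MADs above the screen median; here such calls match roughly 38% of GMNN control or more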

The first 9 records, to show the layout:
no.	Gene	reagent	G2 robust z-score	Outcome
1	CAPS2	1	-0.955	inactive
2	CAPS2	2	-0.0358	inactive
3	CAPS2	3	-0.862	inactive
4	CRYL1	1	-0.857	inactive
5	CRYL1	2	-0.0622	inactive
6	CRYL1	3	-1.11	inactive
7	STIM2	1	-0.595	inactive
8	STIM2	2	-0.776	inactive
9	STIM2	3	1.4	inactive

The listing, from the start:
no.	Gene	reagent	G2 robust z-score	Outcome
1	CAPS2	1	-0.955	inactive
2	CAPS2	2	-0.0358	inactive
3	CAPS2	3	-0.862	inactive
4	CRYL1	1	-0.857	inactive
5	CRYL1	2	-0.0622	inactive
6	CRYL1	3	-1.11	inactive
7	STIM2	1	-0.595	inactive
8	STIM2	2	-0.776	inactive
9	STIM2	3	1.4	inactive
10	RBM17	1	0.954	inactive
11	RBM17	2	3.65	inactive
12	RBM17	3	-0.39	inactive
13	PREX1	1	-0.572	inactive
14	PREX1	2	-0.218	inactive
15	PREX1	3	-0.829	inactive
16	SNAP25	1	0.509	inactive
17	SNAP25	2	-0.493	inactive
18	SNAP25	3	0.0928	inactive
19	LACTB	1	-0.217	inactive
20	LACTB	2	-0.538	inactive
21	LACTB	3	-0.223	inactive
22	FRMD3	1	-0.0442	inactive
23	FRMD3	2	-0.532	inactive
24	FRMD3	3	4.12	inactive
25	INPP5E	1	0.549	inactive
26	INPP5E	2	-1.07	inactive
27	INPP5E	3	0.174	inactive
28	DAPP1	1	-0.328	inactive
29	DAPP1	2	-1.01	inactive
30	DAPP1	3	1.05	inactive
31	LOC729810 (retired record)	1	-0.416	inactive
32	LOC729810 (retired record)	2	-0.662	inactive
33	LOC729810 (retired record)	3	-0.0996	inactive
34	WFDC21P	1	4.71	inactive
35	WFDC21P	2	0.463	inactive
36	WFDC21P	3	-0.319	inactive
37	UGT2B7	1	-0.539	inactive
38	UGT2B7	2	-0.0859	inactive
39	UGT2B7	3	-0.0539	inactive
40	PANK2	1	0.927	inactive
41	PANK2	2	0.193	inactive
42	PANK2	3	3.04	inactive
43	EFL1	1	-0.0673	inactive
44	EFL1	2	-0.151	inactive
45	EFL1	3	2.76	inactive
46	LAMA4	1	-0.465	inactive
47	LAMA4	2	0.772	inactive
48	LAMA4	3	-0.0618	inactive
49	JOSD2	1	-0.443	inactive
50	JOSD2	2	0.0356	inactive
51	JOSD2	3	0.531	inactive
52	TMEM88	1	0.622	inactive
53	TMEM88	2	-0.0374	inactive
54	TMEM88	3	3.74	inactive
55	HUS1	1	3.49	inactive
56	HUS1	2	0.24	inactive
57	HUS1	3	-0.273	inactive
58	FOXD1	1	1.06	inactive
59	FOXD1	2	-0.757	inactive
60	FOXD1	3	6.38	active
61	AHSG	1	0.327	inactive
62	AHSG	2	-0.236	inactive
63	AHSG	3	-0.435	inactive
64	RPL10P17	1	2.07	inactive
65	RPL10P17	2	-0.63	inactive
66	RPL10P17	3	0.841	inactive
67	MECOM	1	-0.327	inactive
68	MECOM	2	-0.0248	inactive
69	MECOM	3	-0.387	inactive
70	MECOM	4	0.0172	inactive
71	MECOM	5	-0.898	inactive
72	MECOM	6	-0.51	inactive
